Measured values: PubChem BioAssay AID504467 (National Center for Advancing Translational Sciences (NCATS), 2011)
The campaign covered roughly 330,000 compounds. About 7,700 (2.3%) were called active. Inconclusive results, whose numbers are uncertain, are shown with a selection of clear calls. Calls follow the shape of the dose curve; as a rule, active = well fitted inhibition curve with a large enough effect; inconclusive = small, poorly fitted or top-dose-only effect, or effect the other way; inactive = flat fitted curve, though single readings scatter. A potency beside an inconclusive call is a rough fit, not a confirmed value.

Assay: qHTS screen for small molecules that inhibit ELG1-dependent DNA repair in human embryonic kidney (HEK293T) cells expressing luciferase-tagged ELG1; also: nearly all actives have a fitted effect of over 55% in size
Settings: HEK293T ELG1-luciferase reporter, luminescence, 16 h, DNA damage induced by 5-fluorouridine; activity change, negative = inhibition: at 46.1 µM (top of the series)
Summary of the method: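 Luminescence from the luciferase reporter, measured 30 min after ONE-Glo reagent at room temperature, was the read-out. Beforehand, 2,000 cells per well were exposed for 16 hr at 37 °C to 5-fluorouridine together with compound or vehicle.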
% is scaled to controls: 0 for no effect and ±100 for the full control effect; potency is read from the fitted curve at half-maximal effect.

Row | Compound | activity change, negative = inhibition | Potency
1 | C[n+]1ccccc1/C=C/c1ccc(F)c(F)c1 | inactive: -4.93% | 
2 | NC(=O)C1(N2CCCCC2)CCN(c2nc(-c3ccc(Br)cc3)cs2)CC1 |  | inconclusive: 23.1 µM [inhibitor, single point]
3 | O=C(NCc1cccs1)C(=O)NCC(c1ccco1)N1CCN(c2ccc(F)cc2)CC1 (centres undefined) |  | inconclusive: 23.1 µM [inhibitor, single point]
4 | Cc1cc(C)cc(N2C(N)=NC(N)=NC2c2cccc(Cl)c2)c1 (centres undefined) |  | inconclusive: 13 µM [inhibitor, partial curve]
5 | Cc1ccc(NC(=O)CCC(=O)N/N=C/c2cc([N+](=O)[O-])ccc2O)cc1 |  | inconclusive: 25.9 µM [inhibitor, partial curve, poor fit]
6 | CCCCCc1cc(=O)[nH]c(=S)[nH]1 | inactive: -0.649% | 
7 | COCc1nnc(NC(=O)c2sc3ccccc3c2Cl)s1 |  | inconclusive: 14.6 µM [activator, partial curve]
8 | O=C(NCCc1c[nH]c2ccccc12)/C(=C\c1cccnc1)NC(=O)c1ccccc1Br |  | inconclusive: 11.6 µM [inhibitor, partial curve, poor fit]
9 | O=C1OC[C@@H]2CCCN2C(=O)[C@@H](CC(=O)N(CCO)Cc2ccccc2)C/C=C\C[C@H]1Cc1ccc(F)cc1 |  | inconclusive: 16.4 µM [inhibitor, single point]
10 | O=C(Nc1ccc2c(c1)OCO2)Nc1ccc(Br)cn1 |  | inconclusive: 4.61 µM [activator, partial curve]
11 | NC(=O)CSc1nc2ccccc2n1Cc1ccccc1F | inactive: -10.3% | 
12 | COc1ccc(N2C(=O)CC(Nc3ccc(C)cc3)C2=O)cc1 (centres undefined) | inactive: 8.99% | 
13 | COc1ccc(CNC(=O)c2c(C)nc3ccccn23)cc1 |  | active: 13 µM
14 | CCCC(=O)NC(=S)Nc1ccc(S(=O)(=O)Nc2ccc(OCC)cc2)cc1 |  | inconclusive: 32.6 µM [inhibitor, partial curve, poor fit]
15 | CC(OC(=O)c1cc(=O)c2ccccc2o1)C(=O)c1ccccc1 (centres undefined) |  | inconclusive: 18.3 µM [activator, single point]
16 | O=c1c2ccccc2oc2c1oc1ccccc12 |  | inconclusive: 16.4 µM [activator, partial curve]
17 | O=C(NC1CCCCCC1)c1ccc2c(=O)n3c(nc2c1)CCCCC3 |  | inconclusive: 2.91 µM [activator, partial curve]
18 | COc1cc(C(=O)Nc2nc(-c3ccc(C)cc3)cs2)ccc1OCC(=O)N1CCOCC1 |  | active: 20.6 µM
19 | CN1CCN(C(=O)c2ccccc2Nc2ccc(SC(F)F)cc2)CC1 | inactive: -5.09% | 
20 | O=C(Nc1ccccc1C(F)(F)F)N1CCC(n2c(=O)[nH]c3ccccc32)CC1 |  | inconclusive: 14.6 µM [inhibitor, partial curve]
21 | c1ccc2c(c1)ccc1nnc(SCc3ccc4c(c3)OCCO4)n12 |  | inconclusive: 29.1 µM [activator, single point]
22 | O=C(N/N=C/c1ccc([N+](=O)[O-])cc1)c1ccccc1OCc1ccccc1 |  | inconclusive: 3.66 µM [inhibitor, partial curve, poor fit]
23 | CCc1cc(-c2[nH]ncc2-c2ccc(OC)cc2)c(O)cc1O |  | inconclusive: 23.1 µM [inhibitor, partial curve]

Row | Compound | activity change, negative = inhibition | Potency
24 | COc1cccc2sc(N(C)c3ccccc3)nc12 |  | inconclusive: 1.64 µM [activator, full curve]
25 | Oc1c(C(c2ccco2)N2CCN(C(c3ccccc3)c3ccccc3)CC2)sc2ncnn12 (centres undefined) |  | inconclusive: 32.6 µM [inhibitor, partial curve, poor fit]
26 | NS(=O)(=O)c1ccc(CCNC(=S)NC(=O)c2ccccc2Br)cc1 |  | inconclusive: 32.6 µM [inhibitor, single point]
27 | COc1ccc(N=N/C(=C\O)C(=O)c2cccs2)cc1 |  | inconclusive: 20.6 µM [inhibitor, single point]
28 | COc1ccccc1CNc1ccc2nnc(CCNC(=O)c3ccccc3)n2n1 |  | inconclusive: 0.58 µM [inhibitor, single point]
29 | Cc1ccc(CN2CCc3c(OCC(=O)Nc4cccc(C)c4C)cccc3C2=O)cc1 |  | inconclusive: 16.4 µM [inhibitor, partial curve]
30 | CCCCn1c(N)c(N(CCC(C)C)C(=O)C2CCN(C(=O)c3ccccc3C)CC2)c(=O)[nH]c1=O |  | inconclusive: 32.6 µM [activator, single point]
31 | Cc1c(C(=O)O)oc2c1/C(=N\O)CC(C)(C)C2 | inactive: 24.2% | 
32 | CNC(=S)NNC(=O)COc1cccc(C)c1C | inactive: 24.3% | 
33 | O=C(NCc1cccnc1)Nc1ccc(Cl)c(Cl)c1 |  | inconclusive: 23.1 µM [activator, partial curve]
34 | Cc1cccc(-n2ncc3c2CCCC3NC(=O)CCCN2CCCCC2=O)c1C (centres undefined) |  | inconclusive: 29.1 µM [inhibitor, single point]
35 | CC[C@]12c3[nH]c4cc(-c5ccco5)ccc4c3CCN1C(=O)[C@@H](CC(=O)NCCC1=CCCCC1)C[C@@H]2C(=O)N1CCN(C(=O)c2ccco2)CC1 |  | inconclusive: 9.2 µM [inhibitor, partial curve]
36 | Cn1cc(/C=C(\C#N)C(=O)Nc2ccccc2O)c2ccccc21 |  | active: 8.2 µM
37 | O=C(CSc1nnc(-c2ccco2)o1)c1ccc[nH]1 |  | inconclusive: 11.6 µM [activator, partial curve]
38 | CCc1nnc(NC(=O)c2ccncc2)s1 |  | inconclusive: 12.6 µM [activator, partial curve, poor fit]
39 | CCCCC(=O)Nc1sc2c(c1C(=O)OCC)CCC(C=O)=C2Cl |  | inconclusive: 20.6 µM [inhibitor, single point]
40 | COc1cc(OC)c2ccc(=O)oc2c1C(CCN1CCCC(C)C1)c1ccc(N(C)C)cc1 (centres undefined) | inactive: -0.326% | 
41 | COc1ccccc1NC(=O)c1cc2ccccc2o/c1=N\O |  | inconclusive: 18.4 µM [activator, partial curve]
42 | CC(C)(O)CCC(C)(C)O | inactive: 3.64% | 
43 | CCN(CC)C(=O)COc1ccc(/C(C)=N/NC(=O)c2ccccc2O)cc1 |  | inconclusive: 9.2 µM [activator, partial curve]
44 | N=c1c2c(ncn1CCCO)Oc1ccc3ccccc3c1C2c1ccccc1 (centres undefined) |  | inconclusive: 29.1 µM [inhibitor, single point]
45 | COC(=O)/C=C/S(=O)(=O)c1ccc(NC(C)=O)cc1 |  | inconclusive: 14.6 µM [activator, partial curve]
46 | Cc1ccc2occ(C(c3nnnn3C3CCCC3)N3CCN(C(=O)c4ccco4)CC3)c(=O)c2c1 (centres undefined) |  | inconclusive: 29.1 µM [inhibitor, single point]

Row | Compound | activity change, negative = inhibition | Potency
47 | O=C(CSc1nnc(-c2ccccc2)n1-c1ccccc1)c1ccc[nH]1 | inactive: -2.52% | 
48 | C/C(=N\Nc1cc(N2CCOCC2)nc(C)n1)c1cccc([N+](=O)[O-])c1 |  | active: 14.6 µM
49 | CCCCc1ccc(S(=O)(=O)Nc2nnc(C)s2)cc1 | inactive: 11% | 
50 | Cc1cccc(Oc2cnn(C(C)(C)C)c(=O)c2Cl)c1 |  | inconclusive: 23.1 µM [inhibitor, partial curve, poor fit]
51 | COC(=O)c1ccn(Cc2ccccc2Cl)n1 |  | inconclusive: 20.6 µM [activator, partial curve]
52 | COc1ccc(CNc2ccc(Br)cc2)cc1 |  | inconclusive: 29.1 µM [activator, single point]
53 | C/C(=N/Nc1nc(-c2ccccc2)cc(-c2ccc(F)cc2)n1)c1cccc(N)c1 |  | active: 7.31 µM
54 | COc1ccc(C(=O)Nc2ccc(N3CCCCC3)cc2)cc1Br |  | inconclusive: 9.2 µM [activator, partial curve]
55 | N#CC1=C(N)NC(SCc2ccc(F)cc2)=C(C#N)C12CCCCC2 |  | inconclusive: 14.6 µM [inhibitor, single point]
56 | c1ccc(-c2ccc(OCCOCCn3cncn3)cc2)cc1 |  | inconclusive: 10 µM [activator, partial curve, poor fit]
57 | CC(C)(C)C(=O)NC(=S)Nc1ccccn1 |  | inconclusive: 32.6 µM [activator, partial curve, poor fit]
58 | C=CCOc1c(Br)cc(CNc2ccc(NC(=O)C(C)C)c(OC)c2)cc1OC | inactive: -6.56% | 
59 | Cc1noc(C)c1S(=O)(=O)N1CCC(C(=O)NC2CCN(Cc3ccccc3)CC2)CC1 |  | inconclusive: 20.6 µM [inhibitor, partial curve]
60 | CSCCC(NS(=O)(=O)c1ccc(Cl)cc1)C(=O)OCc1cccc(Cl)c1 (centres undefined) | inactive: -25.4% | 
61 | CC(C)[C@H](NS(=O)(=O)c1ccc2c(c1)OCCO2)C(=O)OCC(=O)Nc1ccccc1Cl | inactive: -16.3% | 
62 | Cc1cc(C)nc(N/N=C/c2ccccc2OCc2ccc([N+](=O)[O-])cc2)n1 |  | inconclusive: 25.9 µM [inhibitor, single point]
63 | Cc1ccc(S(=O)(=O)N2CCOCC2)cc1C(=O)NCc1cccnc1 | inactive: 1.28% | 
64 | Cc1cc2cc(CN(C(=O)C3CC3)C3CCCC3)c3nnnn3c2cc1C | inactive: -0.648% | 
65 | Cc1cc(SCC(=O)NC(=O)NCc2ccco2)nc2c(C)cccc12 |  | inconclusive: 8.2 µM [inhibitor, partial curve, poor fit]
66 | O=C(COC(=O)c1ccccc1Cl)NCc1ccco1 |  | inconclusive: 18.3 µM [activator, partial curve]
67 | COc1ccc(CCNc2ncnc3sccc23)cc1OC |  | active: 0.291 µM
68 | C/C(=N\Nc1ccc(Cl)c(C(=O)O)c1)c1cccs1 |  | inconclusive: 10.3 µM [activator, partial curve]
69 | O=C(NCc1cccnc1)C(=O)Nc1ccc2c(c1)OCO2 |  | inconclusive: 29.1 µM [activator, single point]

One compound at a time, as listed above.
CC(C)[C@H](NS(=O)(=O)c1ccc2c(c1)OCCO2)C(=O)OCC(=O)Nc1ccccc1Cl reads activity change, negative = inhibition: inactive: -16.3%
O=C(COC(=O)c1ccccc1Cl)NCc1ccco1 reads Potency: inconclusive: 18.3 µM [activator, partial curve]
